These results are taken from article PMC5177899.

Sequences of proteins named here, by UniProt entry; tags and fusion partners are left off. A change or cut given only in a name is not applied to a line headed by its entry.
UniProt O60500: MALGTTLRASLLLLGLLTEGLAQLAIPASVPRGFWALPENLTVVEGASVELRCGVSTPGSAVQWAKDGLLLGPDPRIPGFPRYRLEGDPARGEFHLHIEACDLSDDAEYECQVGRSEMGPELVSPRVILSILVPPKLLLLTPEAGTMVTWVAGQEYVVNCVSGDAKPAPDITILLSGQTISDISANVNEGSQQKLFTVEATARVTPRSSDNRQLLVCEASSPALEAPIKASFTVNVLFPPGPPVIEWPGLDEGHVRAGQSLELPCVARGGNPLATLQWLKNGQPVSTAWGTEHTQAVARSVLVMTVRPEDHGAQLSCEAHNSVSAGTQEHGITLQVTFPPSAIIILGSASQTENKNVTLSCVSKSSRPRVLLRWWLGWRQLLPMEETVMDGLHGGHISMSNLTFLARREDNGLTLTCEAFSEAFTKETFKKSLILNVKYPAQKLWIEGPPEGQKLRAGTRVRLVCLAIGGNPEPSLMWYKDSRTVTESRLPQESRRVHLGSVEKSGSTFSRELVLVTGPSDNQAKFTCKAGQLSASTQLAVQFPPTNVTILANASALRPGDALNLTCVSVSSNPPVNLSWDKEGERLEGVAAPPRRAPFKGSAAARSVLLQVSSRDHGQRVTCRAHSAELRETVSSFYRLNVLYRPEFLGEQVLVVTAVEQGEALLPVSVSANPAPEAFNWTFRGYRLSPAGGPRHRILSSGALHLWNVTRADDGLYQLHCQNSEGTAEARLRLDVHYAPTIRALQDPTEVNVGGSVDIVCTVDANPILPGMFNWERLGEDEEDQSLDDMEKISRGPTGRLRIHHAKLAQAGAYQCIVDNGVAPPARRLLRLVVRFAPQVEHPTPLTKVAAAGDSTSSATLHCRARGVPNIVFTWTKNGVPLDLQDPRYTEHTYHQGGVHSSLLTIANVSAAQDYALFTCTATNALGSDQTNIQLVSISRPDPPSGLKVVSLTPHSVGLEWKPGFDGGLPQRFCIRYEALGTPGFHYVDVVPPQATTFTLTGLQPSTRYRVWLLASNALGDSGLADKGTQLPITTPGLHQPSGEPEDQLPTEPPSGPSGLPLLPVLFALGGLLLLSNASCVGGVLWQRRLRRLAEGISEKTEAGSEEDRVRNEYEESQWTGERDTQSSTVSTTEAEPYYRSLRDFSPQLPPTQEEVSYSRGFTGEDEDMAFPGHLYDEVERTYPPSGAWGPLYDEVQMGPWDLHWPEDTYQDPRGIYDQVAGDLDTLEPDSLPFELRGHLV
UniProt P29067: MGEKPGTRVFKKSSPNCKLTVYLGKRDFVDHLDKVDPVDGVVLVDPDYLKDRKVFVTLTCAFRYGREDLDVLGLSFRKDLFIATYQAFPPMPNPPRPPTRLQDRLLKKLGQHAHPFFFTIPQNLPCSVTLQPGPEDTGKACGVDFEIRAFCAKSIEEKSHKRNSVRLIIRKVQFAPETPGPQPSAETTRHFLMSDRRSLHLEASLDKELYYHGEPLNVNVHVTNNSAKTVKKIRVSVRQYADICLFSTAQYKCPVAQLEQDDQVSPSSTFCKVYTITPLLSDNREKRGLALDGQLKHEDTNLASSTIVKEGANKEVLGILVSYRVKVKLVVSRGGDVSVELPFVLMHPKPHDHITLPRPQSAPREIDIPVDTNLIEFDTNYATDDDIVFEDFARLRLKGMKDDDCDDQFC
UniProt O43639: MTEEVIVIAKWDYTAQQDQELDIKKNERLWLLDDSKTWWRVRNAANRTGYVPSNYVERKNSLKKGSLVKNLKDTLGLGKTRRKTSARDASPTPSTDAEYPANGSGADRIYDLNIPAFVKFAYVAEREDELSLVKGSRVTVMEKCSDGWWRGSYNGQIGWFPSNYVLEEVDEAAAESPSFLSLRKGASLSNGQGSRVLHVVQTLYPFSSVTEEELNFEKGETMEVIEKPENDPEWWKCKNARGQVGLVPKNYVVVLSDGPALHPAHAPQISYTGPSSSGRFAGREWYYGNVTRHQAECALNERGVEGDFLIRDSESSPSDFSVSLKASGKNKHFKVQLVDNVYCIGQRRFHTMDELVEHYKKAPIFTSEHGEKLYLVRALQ

The target in experiment [1] is Y1217A nephrin mutant (C-terminal cytoplasmic domain fusion protein) (human) (UniProt O60500). The experiment can be described thus: co-IP; HEK293T transiently transfected (Ig.nephrin fusion, partner, AT1 receptor), with or without Ang II (1 μM, up to 60 min) and inhibitors (candesartan, PP2, PTX, Ly294002, U73122) or GNAQ siRNA; 1% Triton X-100 lysate, protein G sepharose 1 h at 4 °C; Western blot.

Experiment [2] has as its target Y1217D nephrin mutant (C-terminal cytoplasmic domain fusion protein) (human) (UniProt O60500). The experiment is described as above.

No constants are given. Whether binding was seen depends on the method and setting. Binding seen in cells or lysates may run through a third protein. Binding can be weak; no strength is given.

Take “FLAG-tagged β-arrestin2 (from UniProt P29067 1-410)”: the binding result in experiment [1] and in experiment [2] was “binds” each time.

Regarding Nck2 (from UniProt O43639 1-380), the binding entry in experiment [1] and in experiment [2] was “binds” in each case.
